Measurements published in paper PMC5323126.
Results are given in words; binding and its absence hold for the method and conditions named. In cells and extracts the contact can be indirect. Binding can be weak; no strength is given. For part of these data: Sequences can lack the tags named with a protein. Each block holds one molecule with its values, some of them ahead of it.

Chains of the proteins cited; added tags and fusions are not shown.
UniProt Q14258: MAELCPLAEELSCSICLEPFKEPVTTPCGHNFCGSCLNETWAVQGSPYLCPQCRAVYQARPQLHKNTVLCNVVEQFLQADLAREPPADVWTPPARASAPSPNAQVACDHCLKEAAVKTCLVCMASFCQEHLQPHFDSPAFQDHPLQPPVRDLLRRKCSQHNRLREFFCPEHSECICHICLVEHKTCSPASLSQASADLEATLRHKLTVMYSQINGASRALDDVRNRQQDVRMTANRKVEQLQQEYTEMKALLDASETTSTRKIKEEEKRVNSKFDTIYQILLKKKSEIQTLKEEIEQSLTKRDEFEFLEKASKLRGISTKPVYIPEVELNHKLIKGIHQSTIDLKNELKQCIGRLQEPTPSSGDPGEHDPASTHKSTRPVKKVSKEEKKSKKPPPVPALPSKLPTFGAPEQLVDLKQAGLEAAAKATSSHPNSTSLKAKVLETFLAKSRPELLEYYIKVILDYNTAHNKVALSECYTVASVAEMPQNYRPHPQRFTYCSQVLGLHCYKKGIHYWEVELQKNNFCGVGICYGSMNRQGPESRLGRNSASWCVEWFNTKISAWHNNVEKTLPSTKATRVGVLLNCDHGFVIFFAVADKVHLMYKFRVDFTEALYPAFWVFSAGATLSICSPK

Assays:
[1] = target: GST-TRIM25 (wildtype) (UniProt Q14258); assay: pull-down; GST-TRIM25 variants (purified from E. coli) as bait; whole VCaP cell extract; endogenous ERG detected by immunoblot; only the target purified
[2] = target: endogenous ERG in VCaP cells (N-terminally truncated ERG from the TMPRSS2-ERG fusion gene) (human (endogenous in VCaP)) (UniProt P11308); assay: co-IP; endogenous ERG immunoprecipitated from VCaP cells, TRIM25 detected (Supplementary Figure 1C)
[3] = target: Flag-tagged TRIM25 deletion mutant lacking the SPRY domain; assay: co-IP; Flag-tagged TRIM25 variants and full-length ERG-HA ectopically expressed in HEK293T

binding [1]: binds
Molecule: endogenous ERG in VCaP cells (N-terminally truncated ERG from the TMPRSS2-ERG fusion gene) (from UniProt P11308)

binding [2]: binds
Molecule: Tripartite motif-containing protein 25 (TRIM25), endogenous in VCaP cells (from UniProt Q14258 1-630)

binding [3]: binds
B1: ERG-HA (full-length HA-tagged ERG) (protein, UniProt P11308 1-479)
chain: MASTIKEALSVVSEDQSLFECAYGTPHLAKTEMTASSSSDYGQTSKMSPRVPQQDWLSQPPARVTIKMECNPSQVNGSRNSPDECSVAKGGKMVGSPDTVGMNYGSYMEEKHMPPPNMTTNERRVIVPADPTLWSTDHVRQWLEWAVKEYGLPDVNILLFQNIDGKELCKMTKDDFQRLTPSYNADILLSHLHYLRETPLPHLTSDDVDKALQNSPRLMHARNTGGAAFIFPNTSVYPEATQRITTRPDLPYEPPRRSAWTGHGHPTPQSKAAQPSPSTVPKTEDQRPQLDPYQILGPTSSRLANPGSGQIQLWQFLLELLSDSSNSSCITWEGTNGEFKMTDPDEVARRWGERKSKPNMNYDKLSRALRYYYDKNIMTKVHGKRYAYKFDFHGIAQALQPHPPESSLYKYPSDLPYMGSYHAHPQKMNFVAPHPPALPVTSSSFFAAPNPYWNSPTGGIYPNTRLPTSHMPSHLGTYY
